PubChem BioAssay AID686938, Drosophila RNAi Screening Center – 2013

Purpose: 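Knock-downs reducing store-operated calcium influx in Drosophila cells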 (primary screen)
Cell system: Drosophila S2R+ cells
Knock-down reagent: long dsRNA against Drosophila genes, about 0.25 µg dsRNA per well, roughly 10,000 cells
Timing: 5 days of knock-down before the calcium assay
Conditions: thapsigargin (SERCA pump blocker) to empty calcium stores; entry signal taken 4 min after adding it
Read-out: 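Per-well fluo-4 fluorescence in two replicates, unnormalised, measured in resting cells and 4 min after store depletion by the SERCA blocker thapsigargin; ratio of the two present in few wells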
Direction: calcium entry signal: higher = stronger calcium signal after store depletion; resting calcium signal: higher = higher resting calcium signal
Units: calcium entry signal in fluorescence units; resting calcium signal in fluorescence units
Call rule: 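Called when the plate z-score of the entry-to-rest ratio, mean of duplicates, falls below −3; wells with low overall dye signal (Fmax z below −2) or more than five off-targets excluded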
Calls: active = strongly reduced calcium entry; inactive = no strong reduction
The screen tested about 23,000 reagents; below is an unselected part of those that have a named target and a result. Over the whole deposit, 75 (0.33%) were called active. 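Raw plate signals without normalisation; calls rest on plate z-scores that were not deposited; ratio present for only 364 wells.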 Not stated in the record: the dose of the treatment.

Depletion of CG30010 [DRSC05193] gave: calcium entry signal, replicate 1 = 2.85e7; calcium entry signal, replicate 2 = 6.40e7; resting calcium signal, replicate 1 = 1.47e7; resting calcium signal, replicate 2 = 2.71e7; inactive. Knock-down of CG1622 [DRSC19745] came out at: calcium entry signal, replicate 1 = 4.23e7; calcium entry signal, replicate 2 = 4.68e7; resting calcium signal, replicate 1 = 1.95e7; resting calcium signal, replicate 2 = 1.93e7; inactive. Knock-down of Alk [DRSC05918] came out at: calcium entry signal, replicate 1 = 4.45e7; calcium entry signal, replicate 2 = 2.68e7; resting calcium signal, replicate 1 = 2.09e7; resting calcium signal, replicate 2 = 1.40e7; inactive. For Alk [DRSC23342], the entry reads calcium entry signal, replicate 1 = 3.42e7; calcium entry signal, replicate 2 = 3.47e7; resting calcium signal, replicate 1 = 2.01e7; resting calcium signal, replicate 2 = 1.66e7; inactive. Silencing of CG2202 [DRSC19841] resulted in: calcium entry signal, replicate 1 = 4.48e7; calcium entry signal, replicate 2 = 3.43e7; resting calcium signal, replicate 1 = 1.88e7; resting calcium signal, replicate 2 = 1.62e7; inactive. Silencing of CG3544 [DRSC00613] resulted in: calcium entry signal, replicate 1 = 3.83e7; resting calcium signal, replicate 1 = 2.19e7; inactive.

CG32246 [DRSC08115] showed calcium entry signal, replicate 1 = 4.22e7; calcium entry signal, replicate 2 = 3.66e7; resting calcium signal, replicate 1 = 1.77e7; resting calcium signal, replicate 2 = 1.56e7; inactive. Silencing of Lam [DRSC03359] gave: calcium entry signal, replicate 1 = 1.72e7; calcium entry signal, replicate 2 = 1.81e7; resting calcium signal, replicate 1 = 9.68e6; resting calcium signal, replicate 2 = 9.49e6; inactive. CG14355 [DRSC14818] showed calcium entry signal, replicate 1 = 2.75e7; calcium entry signal, replicate 2 = 3.43e7; resting calcium signal, replicate 1 = 1.32e7; resting calcium signal, replicate 2 = 1.45e7; inactive. For CG14636 [DRSC12223], the values are calcium entry signal, replicate 1 = 2.74e7; calcium entry signal, replicate 2 = 4.72e7; resting calcium signal, replicate 1 = 1.44e7; resting calcium signal, replicate 2 = 1.92e7; inactive. Knock-down of MED11 [DRSC10739] came out at: calcium entry signal, replicate 1 = 1.68e7; calcium entry signal, replicate 2 = 2.23e7; resting calcium signal, replicate 1 = 1.23e7; resting calcium signal, replicate 2 = 1.27e7; inactive. Silencing of MED11 [DRSC23091] resulted in: calcium entry signal, replicate 1 = 3.08e7; calcium entry signal, replicate 2 = 2.34e7; resting calcium signal, replicate 1 = 1.74e7; resting calcium signal, replicate 2 = 1.24e7; inactive.

His4r [DRSC16703] scored calcium entry signal, replicate 1 = 1.06e7; calcium entry signal, replicate 2 = 1.60e7; resting calcium signal, replicate 1 = 7.47e6; resting calcium signal, replicate 2 = 4.50e7; inactive. Against Kua [DRSC02100], the entry reads calcium entry signal, replicate 1 = 4.30e7; calcium entry signal, replicate 2 = 4.68e7; resting calcium signal, replicate 1 = 2.23e7; resting calcium signal, replicate 2 = 2.06e7; inactive. Against CG14244 [DRSC14739], the entry reads calcium entry signal, replicate 1 = 3.25e7; calcium entry signal, replicate 2 = 3.37e7; resting calcium signal, replicate 1 = 1.73e7; resting calcium signal, replicate 2 = 1.46e7; inactive. For CG5541 [DRSC19946] the deposit lists calcium entry signal, replicate 1 = 3.35e7; calcium entry signal, replicate 2 = 4.04e7; resting calcium signal, replicate 1 = 1.58e7; resting calcium signal, replicate 2 = 1.91e7; inactive. After knock-down of Rad23 [DRSC17167], the screen gave calcium entry signal, replicate 1 = 3.35e7; calcium entry signal, replicate 2 = 4.24e7; resting calcium signal, replicate 1 = 1.60e7; resting calcium signal, replicate 2 = 2.07e7; inactive. After knock-down of ca [DRSC15305] the results were calcium entry signal, replicate 1 = 3.02e7; calcium entry signal, replicate 2 = 4.06e7; resting calcium signal, replicate 1 = 1.36e7; resting calcium signal, replicate 2 = 1.76e7; inactive.

Knock-down of ca [DRSC15306] resulted in: calcium entry signal, replicate 1 = 4.36e7; calcium entry signal, replicate 2 = 6.49e7; resting calcium signal, replicate 1 = 2.19e7; resting calcium signal, replicate 2 = 2.50e7; inactive. With knock-down of ca [DRSC16314], the record shows calcium entry signal, replicate 1 = 4.33e7; calcium entry signal, replicate 2 = 5.97e7; resting calcium signal, replicate 1 = 2.16e7; resting calcium signal, replicate 2 = 2.56e7; inactive. Against CG31441 [DRSC15723], the values are calcium entry signal, replicate 1 = 3.17e7; calcium entry signal, replicate 2 = 2.74e7; resting calcium signal, replicate 1 = 1.43e7; resting calcium signal, replicate 2 = 1.37e7; inactive.

2 of these entries in another layout:
{"target gene": "CG1622", "dsRNA": "DRSC19745", "calcium entry signal, replicate 1": 4.23e7, "calcium entry signal, replicate 2": 4.68e7, "resting calcium signal, replicate 1": 1.95e7, "resting calcium signal, replicate 2": 1.93e7, "Call": "inactive"}
{"target gene": "Alk", "dsRNA": "DRSC05918", "calcium entry signal, replicate 1": 4.45e7, "calcium entry signal, replicate 2": 2.68e7, "resting calcium signal, replicate 1": 2.09e7, "resting calcium signal, replicate 2": 1.40e7, "Call": "inactive"}
